Measurements published in article PMC11189303.
Results are given in words; binding and its absence hold for the method and conditions named. In cells and extracts the contact can be indirect. Here binding means that the protein was enriched with, or labelled near, the bait; the list need not be complete.

Chains of the proteins cited; added tags and fusions are not shown.
UniProt O60826: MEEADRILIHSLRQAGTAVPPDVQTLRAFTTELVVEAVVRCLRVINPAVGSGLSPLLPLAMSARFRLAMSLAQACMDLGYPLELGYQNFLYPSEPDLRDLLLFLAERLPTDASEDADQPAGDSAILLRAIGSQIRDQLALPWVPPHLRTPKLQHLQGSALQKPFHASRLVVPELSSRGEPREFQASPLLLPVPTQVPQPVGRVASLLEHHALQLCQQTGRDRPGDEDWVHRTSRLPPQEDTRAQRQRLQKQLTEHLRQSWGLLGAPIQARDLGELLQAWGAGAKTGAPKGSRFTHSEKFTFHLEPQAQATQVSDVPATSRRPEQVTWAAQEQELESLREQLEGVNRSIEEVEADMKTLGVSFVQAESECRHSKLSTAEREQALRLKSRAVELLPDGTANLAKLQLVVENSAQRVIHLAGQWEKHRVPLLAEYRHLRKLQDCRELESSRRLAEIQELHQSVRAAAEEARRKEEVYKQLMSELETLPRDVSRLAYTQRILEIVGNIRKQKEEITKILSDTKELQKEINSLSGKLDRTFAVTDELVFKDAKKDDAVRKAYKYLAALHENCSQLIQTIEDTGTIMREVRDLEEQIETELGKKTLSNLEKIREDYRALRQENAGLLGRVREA
UniProt Q9NX08: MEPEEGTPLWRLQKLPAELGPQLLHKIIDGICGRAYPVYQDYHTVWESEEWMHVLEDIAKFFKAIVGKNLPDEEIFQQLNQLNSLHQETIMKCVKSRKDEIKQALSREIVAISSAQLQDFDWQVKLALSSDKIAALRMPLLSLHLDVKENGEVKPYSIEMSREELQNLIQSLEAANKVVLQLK

Experiments:
[1] = target: CCDC22 (human) (UniProt O60826); test: proximity labelling; BioID–MS: MAC-tagged (BirA*) bait in Flp-In T-REx 293, tetracycline and 50 μM biotin 24 h; lysis with 0.1% SDS and benzonase, Strep-Tactin beads; high-confidence interactions by SAINTexpress and CRAPome
[2] = target: COMMD8 (human) (UniProt Q9NX08); test: as above

B1: adaptor protein AP4E1 (protein, UniProt Q9UPM8 1-1137)
chain: MSDIVEKTLTALPGLFLQNQPGGGPAAAKASFSSRLGSLVRGITALTSKHEEEKLIQQELSSLKATVSAPTTTLKMMKECMVRLIYCEMLGYDASFGYIHAIKLAQQGNLLEKRVGYLAVSLFLHESHELLLLLVNTVVKDLQSTNLVEVCMALTVVSQIFPCEMIPAVLPLIEDKLQHSKEIVRRKAVLALYKFHLIAPNQVQHIHIKFRKALCDRDVGVMAASLHIYLRMIKENSSGYKDLTGSFVTILKQVVGGKLPVEFNYHSVPAPWLQIQLLRILGLLGKDDQRTSELMYDVLDESLRRAELNHNVTYAILFECVHTVYSIYPKSELLEKAAKCIGKFVLSPKINLKYLGLKALTYVIQQDPTLALQHQMTIIECLDHPDPIIKRETLELLYRITNAQNITVIVQKMLEYLHQSKEEYVIVNLVGKIAELAEKYAPDNAWFIQTMNAVFSVGGDVMHPDIPNNFLRLLAEGFDDETEDQQLRLYAVQSYLTLLDMENVFYPQRFLQVMSWVLGEYSYLLDKETPEEVIAKLYKLLMNDSVSSETKAWLIAAVTKLTSQAHSSNTVERLIHEFTISLDTCMRQHAFELKHLHENVELMKSLLPVDRSCEDLVVDASLSFLDGFVAEGLSQGAAPYKPPHQRQEEKLSQEKVLNFEPYGLSFSSSGFTGRQSPAGISLGSDVSGNSAETGLKETNSLKLEGIKKLWGKEGYLPKKESKTGDESGALPVPQESIMENVDQAITKKDQSQVLTQSKEEKEKQLLASSLFVGLGSESTINLLGKADTVSHKFRRKSKVKEAKSGETTSTHNMTCSSFSSLSNVAYEDDYYSNTLHDTGDKELKKFSLTSELLDSESLTELPLVEKFSYCSLSTPSLFANNNMEIFHPPQSTAASVAKESSLASSFLEETTEYIHSNAMEVCNNETISVSSYKIWKDDCLLMVWSVTNKSGLELKSADLEIFPAENFKVTEQPGCCLPVMEAESTKSFQYSVQIEKPFTEGNLTGFISYHMMDTHSAQLEFSVNLSLLDFIRPLKISSDDFGKLWLSFANDVKQNVKMSESQAALPSALKTLQQKLRLHIIEIIGNEGLLACQLLPSIPCLLHCRVHADVLALWFRSSCSTLPDYLLYQCQKVMEGS
- binding [1]: binds
- binding [2]: binds
